Earlier results as cited in patent US20180071210A1, “CANNABINOID FORMULATIONS” (GW Research Limited, priority 2016, published 2018).
Converted amounts (≈) assume the structure as drawn.

In the case of `C=C(C)[C@@H]1CCC(C)=C[C@H]1c1c(O)cc(CCCCC)cc1O` [CBD, cannabidiol], the “solubility in dimethylsulfoxide DMSO” value (DMSO) is given as 60 mg/mL (≈ 191 mM) and the solubility in ethanol (ethanol) is given as 36 mg/mL (≈ 114 mM).
